Assay results reported in article PMC2364237.
No constants are given. Whether binding was seen depends on the method and setting. In cells and extracts the contact can be indirect. Some binding calls cover weakened binding; strength is not graded here.

Biological target: T1, p13suc1 conjugated to agarose beads (UniProt P08463)
T1 sequence: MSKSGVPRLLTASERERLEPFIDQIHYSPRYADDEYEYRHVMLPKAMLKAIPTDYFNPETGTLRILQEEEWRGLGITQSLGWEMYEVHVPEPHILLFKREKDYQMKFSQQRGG
Assay: pull-down; p13suc1-agarose incubated with extracts of transfected 293T cells; blotted with anti-FRS2; only the target purified

binding: binds
B1: SNT1/FRS2 adaptor protein (endogenous) (protein, UniProt Q8WU20 1-508)
chain: MGSCCSCPDKDTVPDNHRNKFKVINVDDDGNELGSGIMELTDTELILYTRKRDSVKWHYLCLRRYGYDSNLFSFESGRRCQTGQGIFAFKCARAEELFNMLQEIMQNNSINVVEEPVVERNNHQTELEVPRTPRTPTTPGFAAQNLPNGYPRYPSFGDASSHPSSRHPSVGSARLPSVGEESTHPLLVAEEQVHTYVNTTGVQEERKNRTSVHVPLEARVSNAESSTPKEEPSSIEDRDPQILLEPEGVKFVLGPTPVQKQLMEKEKLEQLGRDQVSGSGANNTEWDTGYDSDERRDAPSVNKLVYENINGLSIPSASGVRRGRLTSTSTSDTQNINNSAQRRTALLNYENLPSLPPVWEARKLSRDEDDNLGPKTPSLNGYHNNLDPMHNYVNTENVTVPASAHKIEYSRRRDCTPTVFNFDIRRPSLEHRQLNYIQVDLEGGSDSDNPQTPKTPTTPLPQTPTRRTELYAVIDIERTAAMSNLQKALPRDDGTSRKTRHNSTDLPM
